{
  "sequences": {"note": "Protein sequences, listed by entry. Tags and fused reporters are not part of them. Lines headed by an entry give the natural chain unless they say otherwise; changes in a name come on top.", "UniProt Q12809": "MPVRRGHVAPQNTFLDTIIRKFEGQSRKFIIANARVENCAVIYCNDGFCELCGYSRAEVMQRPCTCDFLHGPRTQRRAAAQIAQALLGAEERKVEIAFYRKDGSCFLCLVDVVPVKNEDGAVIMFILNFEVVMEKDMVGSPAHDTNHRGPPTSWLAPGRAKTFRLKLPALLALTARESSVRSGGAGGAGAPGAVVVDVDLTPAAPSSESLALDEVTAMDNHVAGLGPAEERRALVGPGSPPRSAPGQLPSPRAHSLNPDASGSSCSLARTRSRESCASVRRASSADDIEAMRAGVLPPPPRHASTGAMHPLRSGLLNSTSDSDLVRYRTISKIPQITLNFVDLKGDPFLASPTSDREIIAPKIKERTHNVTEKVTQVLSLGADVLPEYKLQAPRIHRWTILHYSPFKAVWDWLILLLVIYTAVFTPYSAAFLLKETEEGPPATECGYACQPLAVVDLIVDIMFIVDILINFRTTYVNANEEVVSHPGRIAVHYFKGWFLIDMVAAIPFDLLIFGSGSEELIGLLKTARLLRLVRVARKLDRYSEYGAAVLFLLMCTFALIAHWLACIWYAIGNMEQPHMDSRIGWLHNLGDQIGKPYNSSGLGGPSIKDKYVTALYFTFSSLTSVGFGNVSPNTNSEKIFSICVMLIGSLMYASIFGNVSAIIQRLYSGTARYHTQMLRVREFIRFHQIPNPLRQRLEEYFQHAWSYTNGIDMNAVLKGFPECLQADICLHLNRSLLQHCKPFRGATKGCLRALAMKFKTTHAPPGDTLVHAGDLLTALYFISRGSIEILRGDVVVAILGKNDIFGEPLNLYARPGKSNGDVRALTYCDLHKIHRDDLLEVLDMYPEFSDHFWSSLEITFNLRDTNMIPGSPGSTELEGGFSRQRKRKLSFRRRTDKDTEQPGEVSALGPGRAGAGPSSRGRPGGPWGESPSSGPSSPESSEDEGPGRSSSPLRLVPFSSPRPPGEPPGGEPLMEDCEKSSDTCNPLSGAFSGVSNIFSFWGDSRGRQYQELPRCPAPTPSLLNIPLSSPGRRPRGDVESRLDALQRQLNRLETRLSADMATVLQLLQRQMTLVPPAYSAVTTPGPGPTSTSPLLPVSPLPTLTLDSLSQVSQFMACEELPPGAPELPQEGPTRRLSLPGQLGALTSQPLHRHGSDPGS"},
  "source": "ChEMBL document CHEMBL2034889",
  "about": "“The design and synthesis of novel, potent and orally bioavailable N-aryl piperazine-1-carboxamide CCR2 antagonists with very high hERG selectivity” (Bioorg Med Chem Lett, 2012)",
  "molecular_target": "Voltage-gated inwardly rectifying potassium channel KCNH2 (Homo sapiens, UniProt Q12809)",
  "data": [
    {"compound": "O=C(Nc1ccc(Cl)c(Cl)c1)N1CCN(C[C@@H]2CCCN(Cc3ccccc3)C2)CC1", "values": [
      {"measurement": "IC50", "value": 560, "unit": "nM"}
    ]},
    {"compound": "O=C(Nc1ccc(Cl)c(Cl)c1)N1CCN(C[C@@H]2CCCN(CCc3ccccc3)C2)CC1", "values": [
      {"measurement": "IC50", "value": "< 300", "unit": "nM"}
    ]}
  ]
}
